Measurements as given in the supplement of paper PMC11348887.
Where a name gives a salt, the structure may show the parent alone. Some of the results follow. Most entries show no effect beyond the scatter of the controls.

Each compound was assayed on hPSC-derived cortical neurons (WA09) (assay: total neurite length per nucleus (MAP2) z-score; higher = more neurite growth). Settings: 5 µM; treatment: days 7-14 after plating, readout day 21.

| Structure (SMILES) | total neurite length per nucleus (z-score) |
| --- | --- |
| COCC(=O)NC/C=C/c1ccc2ncnc(Nc3ccc(Oc4ccc(C)nc4)c(C)c3)c2c1 | -0.637 |
| CN(C)[C@@H]1C(O)=C(C(N)=O)C(=O)[C@@]2(O)C(O)=C3C(=O)c4c(O)cccc4[C@@](C)(O)[C@H]3C[C@@H]12 [Tetracycline HCl] | 0.471 |
| Cc1cc(C)nc(NS(=O)(=O)c2ccc(N)cc2)n1 [Sulfamethazine] | 0.3 |
| CC(C)C[C@H](NC(=O)[C@H]1O[C@@H]1C(=O)O)C(=O)NCCCCN=C(N)N | -3.2 |
| O=C(/C=C/c1ccc(CN(CCO)CCc2c[nH]c3ccccc23)cc1)NO [LAQ824 (Dacinostat)] | -2.99 |
| Nc1cc(C(F)(F)F)c(-c2cc(N3CCOCC3)nc(N3CCOCC3)n2)cn1 [BKM120 (NVP-BKM120_ Buparlisib)] | -2.34 |
| COc1cc(F)c(F)c(Nc2ccc(I)cc2F)c1NS(=O)(=O)C1(C[C@H](O)CO)CC1 [Refametinib (RDEA119_ Bay 86-9766)] | -0.479 |
| CC[C@H]1OC(=O)[C@H](C)[C@@H](O[C@H]2C[C@@](C)(OC)[C@@H](O)[C@H](C)O2)[C@H](C)[C@@H](O[C@@H]2O[C@H](C)C[C@H](N(C)C)[C@H]2O)[C@](C)(OC)C[C@@H](C)C(=O)[C@H](C)[C@@H](O)[C@]1(C)O [Clarithromycin] | 1.45 |
| Nc1nc(N)c(N=O)c(OCC2CCCCC2)n1 | -0.401 |
| COCCOc1nc(-c2ccc(Cl)c(Cl)c2)n(-c2ccc(NC(=O)CCl)cc2)n1 [MI-2 (MALT1 inhibitor)] | -2.28 |
